Experimental data: PubChem BioAssay AID1224828 (NIAID, 2016)
Purpose: 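Regulators linking TLR4 signalling to p65 nuclear translocation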 (primary screen). Cells: mouse RAW264.7 G9 macrophage reporter cells (GFP-p65, Tnf promoter-mCherry). Knock-down reagent: siRNA pool against mouse genes, 100 nM. Timing: 2 days siRNA transfection, then 40 min LPS before fixation. Treatment: LPS (Salmonella minnesota R595) at 10 ng/ml. Detection: 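Microscopy ratio of nuclear to perinuclear-ring GFP-p65 signal, scaled to the plate median; gene score is the average of two replicate robust z-scores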. Direction: p65 translocation robust z-score: higher = more nuclear NF-kappaB p65 after LPS than the plate median; nuclear/cytoplasmic p65 ratio: higher = more nuclear NF-kappaB p65. Call rule: 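Called active when z exceeds 3.3 or falls under -1.56 (median of Tlr4 controls), giving activity score of at least 50; no calls for control wells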. Calls: active = hit (p65 shift raised or lowered); inactive = no clear change.
Here is an unselected part of about 17,000 reagents. Over the whole deposit, 762 (4.5%) are marked active. 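Active calls include both raised and lowered p65 entry, mostly lowered; wells with fewer than 50 cells lack a z-score.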 The raw values are shown without normalisation. Reagent sequences are not shown.

Gene	p65 translocation robust z-score	nuclear/cytoplasmic p65 ratio, rep 1	nuclear/cytoplasmic p65 ratio, rep 2	low cell count flag	Call
Chrnb1 (GeneID 11443)	-0.01	1.52	1.33	enough cells to score	inactive
Repin1 (GeneID 58887)		1.33	1.22	fewer than 50 cells per well; well left out of scoring	inactive
Gbp2b (GeneID 14468)	1.1	1.54	1.55	enough cells to score	inactive
Or51a25 (GeneID 259116)		1.19	1.2	fewer than 50 cells per well; well left out of scoring	inactive
Ptprk (GeneID 19272)	-0.12	1.57	1.43	enough cells to score	inactive
Ifitm2 (GeneID 80876)	-1.25	1.36	1.63	enough cells to score	inactive
Slx4 (GeneID 52864)	-0.71	1.44	1.31	enough cells to score	inactive
Dlgap1 (GeneID 224997)	0.48	1.72	1.66	enough cells to score	inactive
Casp14 (GeneID 12365)	-0.68	1.51	1.52	enough cells to score	inactive
Tnpo1 (GeneID 238799)	0.05	1.52	1.53	enough cells to score	inactive
Fam13c (GeneID 71721)	-1.47	1.21	1.22	enough cells to score	inactive
Pacrgl (GeneID 66768)		1.57	1.57	fewer than 50 cells per well; well left out of scoring	inactive
Commd3 (GeneID 12238)	1.25	1.7	2.05	enough cells to score	inactive
Rbp7 (GeneID 63954)	0.81	1.56	1.28	enough cells to score	inactive
Il27 (GeneID 246779)		1.3	1.28	fewer than 50 cells per well; well left out of scoring	inactive
Supt16 (GeneID 114741)	0.68	1.5	1.31	enough cells to score	inactive
Zcchc8 (GeneID 70650)	0.26	1.44	1.29	enough cells to score	inactive
Calu (GeneID 12321)	-0.36	1.62	1.63	enough cells to score	inactive
Ehf (GeneID 13661)	-1.07	1.3	1.25	enough cells to score	inactive
Ptpro (GeneID 19277)	0.22	1.62	1.48	enough cells to score	inactive
Hcrtr1 (GeneID 230777)	-1.47	1.25	1.18	enough cells to score	inactive
Sgpl1 (GeneID 20397)	-1.39	1.19	1.12	enough cells to score	inactive
Ptcra (GeneID 19208)	-0.76	1.36	1.33	enough cells to score	inactive
Kir3dl1 (GeneID 245616)	-0.54	1.4	1.27	enough cells to score	inactive
Rpl10a (GeneID 19896)		1.27	1.19	fewer than 50 cells per well; well left out of scoring	inactive
Or1n2 (GeneID 258941)	0.26	1.64	1.53	enough cells to score	inactive

Single entries from above:
Sgpl1 (GeneID 20397), low cell count flag = enough cells to score
Under “Call”, Rpl10a (GeneID 19896) has inactive
Kir3dl1 (GeneID 245616), nuclear/cytoplasmic p65 ratio, rep 2 → 1.27
Hcrtr1 (GeneID 230777), Call: inactive
Result of Pacrgl (GeneID 66768) in “nuclear/cytoplasmic p65 ratio, rep 1”: 1.57
Value of Ptpro (GeneID 19277) under “p65 translocation robust z-score”: 0.22

The listing continues:
Gene	p65 translocation robust z-score	nuclear/cytoplasmic p65 ratio, rep 1	nuclear/cytoplasmic p65 ratio, rep 2	low cell count flag	Call
Tjp2 (GeneID 21873)	-0.2	1.71	1.36	enough cells to score	inactive
Chrnb2 (GeneID 11444)	-0.44	1.46	1.32	enough cells to score	inactive
9930022D16Rik (GeneID 320509)	-0.83	1.27	1.47	enough cells to score	inactive
Elfn1 (GeneID 243312)	-0.84	1.28	1.4	enough cells to score	inactive
Vps26a (GeneID 30930)	1.29	1.53	1.4	enough cells to score	inactive
Ly86 (GeneID 17084)	-0.83	1.58	1.43	enough cells to score	inactive
Tram1l1 (GeneID 229801)		1.45	1.22	fewer than 50 cells per well; well left out of scoring	inactive
Crbn (GeneID 58799)	-0.12	1.64	1.67	enough cells to score	inactive
Slc41a1 (GeneID 98396)		1.19	1.07	fewer than 50 cells per well; well left out of scoring	inactive
Reep1 (GeneID 52250)		1.31	1.52	fewer than 50 cells per well; well left out of scoring	inactive
Rnf214 (GeneID 235315)	-0.59	1.52	1.65	enough cells to score	inactive
Rhox9 (GeneID 104384)		1.15	0.94	fewer than 50 cells per well; well left out of scoring	inactive
Ppp1r8 (GeneID 100336)	0.95	1.73	1.78	enough cells to score	inactive
Map3k7 (GeneID 26409)	0.26	2.12	1.41	enough cells to score	inactive
Svs5 (GeneID 20944)	-0.58	1.37	1.14	enough cells to score	inactive
Rbks (GeneID 71336)	-1.26	1.55	1.22	enough cells to score	inactive
Reep3 (GeneID 28193)	-1.13	1.4	1.61	enough cells to score	inactive
Or4p22 (GeneID 258820)	0.49	1.8	1.59	enough cells to score	inactive
Papss2 (GeneID 23972)	-0.31	1.51	1.34	enough cells to score	inactive
Ccl11 (GeneID 20292)	1.55	1.64	1.61	enough cells to score	inactive
Sord (GeneID 20322)	0.2	1.56	1.6	enough cells to score	inactive
Fgfrl1 (GeneID 116701)	-0.03	1.37	1.43	enough cells to score	inactive
Prdm2 (GeneID 110593)	0.82	1.76	1.71	enough cells to score	inactive
Zfp292 (GeneID 30046)	0.43	1.46	1.31	enough cells to score	inactive
Msln (GeneID 56047)	0.32	1.54	1.34	enough cells to score	inactive
Eno1 (GeneID 13806)	-0.63	1.21	1.44	enough cells to score	inactive
Snx18 (GeneID 170625)		1.7	1.18	fewer than 50 cells per well; well left out of scoring	inactive
Hand1 (GeneID 15110)	0.05	1.27	1.4	enough cells to score	inactive
Raver1 (GeneID 71766)	-0.97	1.42	1.3	enough cells to score	inactive
Rtp3 (GeneID 235636)		1.25	1.14	fewer than 50 cells per well; well left out of scoring	inactive
Pkd2l1 (GeneID 329064)	-0.41	1.57	1.53	enough cells to score	inactive
Fam181b (GeneID 58238)	0.71	1.44	1.67	enough cells to score	inactive
Eml4 (GeneID 78798)		1.31	1.44	fewer than 50 cells per well; well left out of scoring	inactive
